According to PubChem BioAssay AID1508600 (Functional Genomics Laboratory (NCATS/FGL), 2020):
About 3,700 (7%) of roughly 53,000 sequences were called active.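 The calls were made as follows: active = gene knockdowns whose robust z-score for IL-1 alpha signal is at least 2 or at most -2, so actives lie on both sides; inactive = the rest.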 The list shows a part of the results.

experiment: Components of the Cytosolic LPS Sensing Pathway: Gene Identification via Genome-wide siRNA Screen; conditions: RAW264.7 macrophages, IL-1a HTRF, actives lie on both sides, screened at 100 nM (by protocol), cells primed 5 h with Pam3CSK4 first;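 also: robust z of the log signal after scaling to non-targeting control siRNA wells of the plate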
Procedure, shortened: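 Three distinct siRNAs per gene were tested singly at 100 nM in RAW264.7 macrophages. Following Pam3CSK4 priming and 24 hour LipidA transfection, IL-1a secretion was read by HTRF.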

Row | Sequence | z-score
1 | GGCAUUCUGAAAAAAUAGCTT against Rb1cc1 | inactive: -1.55
2 | GGCUACACAAGAAGAUUCUTT against Tsks | inactive: 0.737
3 | CCAGUGUGGAGGAAAGUACTT against Nrsn2 | inactive: -0.752
4 | GGUGUCAUCCCUGAAAGAGTT against Tert | inactive: 0.0314
5 | GGUAGACCCUUUUUUUAAGTT against Tgm4 | inactive: 0.432
6 | GGUAAUUACUUUCAUAAGGTT against Txnrd1 | inactive: -0.264
7 | GGUAGUUUCUGGACAAAAGTT against Cip2a | inactive: 0.85
8 | GGUUAGAAAACAAUAUCAGTT against 9530053A07Rik | inactive: 0.88
9 | GCAACUUACUGGUAACUCCTT against Slc7a11 | inactive: 0.829
10 | GGCAAUGGUUCAGGAGAAATT against Col25a1 | inactive: 0.232
11 | GGAUUUGUUAAAGAUUCCGTT against Cpd | inactive: 0.792
12 | GGUCAUCUGCCACAUGGCATT against Tex19.2 | inactive: 1.57
13 | GGAACACUACCGUUUUGGGTT against Ehd2 | active: 2.55
14 | GGAGCAAAGGAACAUGAAGTT against Slc12a6 | inactive: 1.01
15 | GGUGGUAGCUUUGUACUUUTT against Nxnl2 | inactive: 0.829
16 | GGAGGAAAAUGUCCUUGUUTT against Pth | inactive: 0.25
17 | GGAAGAACGAAAAUAUCUGTT against Spata1 | inactive: -1.12
18 | GGAAAGGUCAAGAGAAUUUTT against Strn3 | inactive: -1.16
19 | CCGAGUGCCGACAAAGUGATT against Ccdc22 | inactive: 1.6
20 | GGCCAACCUAAGUCUCAUATT against B830017H08Rik | inactive: -1.16
21 | GGAUGUGUCGGGAAAUGCUTT against Frmd5 | inactive: -1.7
22 | GGCUAUUUUGGGACGGCUUTT against Slc16a14 | inactive: -0.449
23 | GGCGUGUAUGUCAAAAAUATT against Grip1 | inactive: -0.201

Nos. 4–19 of the list above:
Row | Sequence | z-score
4 | GGUGUCAUCCCUGAAAGAGTT against Tert | inactive: 0.0314
5 | GGUAGACCCUUUUUUUAAGTT against Tgm4 | inactive: 0.432
6 | GGUAAUUACUUUCAUAAGGTT against Txnrd1 | inactive: -0.264
7 | GGUAGUUUCUGGACAAAAGTT against Cip2a | inactive: 0.85
8 | GGUUAGAAAACAAUAUCAGTT against 9530053A07Rik | inactive: 0.88
9 | GCAACUUACUGGUAACUCCTT against Slc7a11 | inactive: 0.829
10 | GGCAAUGGUUCAGGAGAAATT against Col25a1 | inactive: 0.232
11 | GGAUUUGUUAAAGAUUCCGTT against Cpd | inactive: 0.792
12 | GGUCAUCUGCCACAUGGCATT against Tex19.2 | inactive: 1.57
13 | GGAACACUACCGUUUUGGGTT against Ehd2 | active: 2.55
14 | GGAGCAAAGGAACAUGAAGTT against Slc12a6 | inactive: 1.01
15 | GGUGGUAGCUUUGUACUUUTT against Nxnl2 | inactive: 0.829
16 | GGAGGAAAAUGUCCUUGUUTT against Pth | inactive: 0.25
17 | GGAAGAACGAAAAUAUCUGTT against Spata1 | inactive: -1.12
18 | GGAAAGGUCAAGAGAAUUUTT against Strn3 | inactive: -1.16
19 | CCGAGUGCCGACAAAGUGATT against Ccdc22 | inactive: 1.6

Remaining list, next part.

Row | Sequence | z-score
24 | GGCCUUUAUUCUAUGCAGUTT against Htr3a | inactive: 1.59
25 | CCAUUUGGCUCACAGUACGTT against Rbck1 | inactive: -0.449
26 | GGGAUUCUGCUGGCUAUGATT against Olfr641 | inactive: 1.93
27 | GGUAGAUAAUGAAGACAUCTT against Frk | inactive: 0.302
28 | GGAAGUGCUAAAGAAGUACTT against Dtx4 | inactive: -1.12
29 | GGACUUUCUAAGGGUAAAATT against Luzp1 | inactive: -0.0646
30 | CGCUGAAGUCUUUUCACAATT against Baiap2 | inactive: 0.286
31 | GGUUUUACCAGAAAUUCAGTT against Lactb2 | inactive: 1.09
32 | UGUCCAACAAGCUCUGUACTT against Olfr202 | inactive: -0.156
33 | CCACCGUUGUGGAAGAAUCTT against Apol10b | inactive: 0.296
34 | CCUGUUCACAACUUUCCUATT against Olfr1241 | inactive: 0.895
35 | GGACAGAUAGUGAAAGAUATT against Tmem130 | inactive: -1.95
36 | CCAAUUGAGGCUGACGUGATT against Dld | inactive: 0.182
37 | CCAUCUCAGGUGCAAUUUGTT against Ttc6 | inactive: -0.67
38 | GCUUUACUCCCUAAAUUCATT against Dmrt3 | inactive: 0.755
39 | GGCAAGUUAAGGUAUAUGGTT against Efl1 | inactive: -0.153
40 | GGUCUUGACACUUCAAAGATT against Plin4 | inactive: 0.36
41 | GGAUUUUUCCAUAAAAACCTT against B3galnt1 | inactive: 1.04
42 | GGACUUCAGCAACUAUAGUTT against Ggt7 | inactive: -0.631
43 | CCAUUGGUUAGUGAAGAUUTT against Tmprss11c | inactive: -1.86
44 | GGUGGAAAUUCCUUAAAUATT against Herc2 | inactive: -0.626
45 | GGGAAAGAGUUUUACAAACTT against Ttc22 | active: 2.74
46 | CCAUAGGAGAUCUGUUUUATT against Ripk4 | inactive: 0.321

Row | Sequence | z-score
47 | GGCUUACUAACAGUUUUUGTT against Gem | inactive: -0.29
48 | CUACACUCUCAUUAUGAACTT against Olfr138 | inactive: 1.16
49 | CGAGUUUGACCGGACCAUCTT against Ssna1 | active: 2.44
50 | GCUGCACGCACUGAUCAAGTT against Tjap1 | inactive: 1.02
51 | GGUUUUUCGUUUCAAUGUGTT against Tgfb3 | inactive: 0.109
52 | GGAAGAACAAAUAGGUCGATT against Defb14 | inactive: 0.21
53 | GCACGCUAUUGGCUAUGAGTT against BC052040 | inactive: -0.0182
54 | UGCUGUUGGAGAGCAAAUATT against Slpi | inactive: -0.8
55 | GUUCCCAUGUUCUUGGUGUTT against Olfr203 | inactive: -1.09
56 | GGUUUCCAAACCCUUCACATT against Lor | inactive: -1.74
57 | GGAAUCUUCUGAAUUGCCUTT against Cul7 | inactive: 0.547
58 | CGGGAAAUUCGUCUAUGUUTT against Arntl2 | inactive: 0.342
59 | GGCCAUCUUUAGACAUAUUTT against Serpinf2 | inactive: 0.0944
60 | GGAUUCCACUCAAGUAUAATT against Gpr35 | inactive: 1.42
61 | GCUAAUCCUGACAUUUGGCTT against Crabp1 | inactive: 0.34
62 | GCUGUGCAGCCACAAGUGATT against Gpr142 | active: 8.63
63 | CCCUUGGCCUUCCAAAUUGTT against Psg21 | inactive: -0.257
64 | GGUUAUUUUCUUCAUGACUTT against Fbxl19 | inactive: -1.3
65 | CCUGACCAUGCUGUUAUAUTT against Dppa1 | inactive: -0.0184
66 | GGCAAGUUGACCGUGUUUUTT against Dtnb | inactive: -0.307
67 | CGAGUUGUAACACAUCUUUTT against Ulk4 | inactive: 0.603
68 | GGAUCAAGUGGUCAAGGUATT against Ilvbl | inactive: 0.402
69 | CGGGCAGCUAGAUUUCCAATT against S100a11 | active: 2.86
